Data as given in publication PMC11667169.
These are yes or no findings as the source states them, for the method shown. Binding seen in cells or lysates may run through a third protein. Some results given as binding are weak or reduced against the parent protein; the word gives no strength.

Amino acid sequences for entries named in this document (tags omitted). A change or cut given only in a name is not applied to a line headed by its entry.
UniProt Q99720: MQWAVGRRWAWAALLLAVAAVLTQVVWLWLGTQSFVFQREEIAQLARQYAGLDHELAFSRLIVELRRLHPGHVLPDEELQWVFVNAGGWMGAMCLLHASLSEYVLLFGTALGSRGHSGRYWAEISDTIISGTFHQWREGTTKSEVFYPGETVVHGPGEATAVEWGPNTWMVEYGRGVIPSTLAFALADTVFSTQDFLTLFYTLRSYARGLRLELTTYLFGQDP
UniProt P06199: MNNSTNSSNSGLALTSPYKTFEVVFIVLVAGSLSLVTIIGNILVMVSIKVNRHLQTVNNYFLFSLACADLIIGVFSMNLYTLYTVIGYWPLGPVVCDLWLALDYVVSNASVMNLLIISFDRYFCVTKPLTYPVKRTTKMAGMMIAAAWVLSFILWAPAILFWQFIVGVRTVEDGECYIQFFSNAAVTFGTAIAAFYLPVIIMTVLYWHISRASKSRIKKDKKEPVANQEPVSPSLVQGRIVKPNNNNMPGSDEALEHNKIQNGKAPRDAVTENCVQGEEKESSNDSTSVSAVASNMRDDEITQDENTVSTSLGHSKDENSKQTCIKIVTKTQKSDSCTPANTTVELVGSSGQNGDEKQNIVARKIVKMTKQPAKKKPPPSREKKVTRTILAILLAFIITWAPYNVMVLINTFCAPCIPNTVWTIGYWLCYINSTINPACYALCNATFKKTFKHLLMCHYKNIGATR

Experiments:
Test in all cases: co-IP; HEK293T cells co-transfected with tagged M2R (or mutant) and S1R-V5-His (or E102Q), lysed after 48 h; lysate precleared with protein G Sepharose; IP with mouse anti-EGFP antibody (M2R) or mouse anti-V5 antibody (S1R) and G-Sepharose, 2 h at 4 °C, three washes; Western blot with anti-M2R (or anti-EGFP) and anti-His antibodies
[1] = molecular target: Sigma-1 receptor tagged with V5 and His tags (S1R-V5-His) (human) (UniProt Q99720)
[2] = molecular target: S1R E102Q with V5 and His tags (human) (UniProt Q99720)
[3] = molecular target: M2-muscarinic acetylcholine receptor tagged with EGFP (M2R-EGFP) (porcine) (UniProt P06199)
[4] = molecular target: M2R E172P/E175Q-CFP (porcine) (UniProt P06199)
M2R A401T-CFP (porcine) = M2R A401T-CFP (porcine) (UniProt P06199)
M2R-CFP (porcine) = M2R-CFP (porcine) (UniProt P06199)

binding [1]	binding [3]	Substance	further results
binds		M2-muscarinic acetylcholine receptor tagged with EGFP (M2R-EGFP) (from UniProt P06199 1-466)	binding [2]: binds
binds		M2R A401T-CFP (from UniProt P06199 1-466) (receptor)	
binds		M2R E172P/E175Q-CFP (from UniProt P06199 1-466) (receptor)	
binds		M2R-CFP (from UniProt P06199 1-466) (receptor)	
	binds	S1R E102Q with V5 and His tags (from UniProt Q99720 1-223)	
	binds	Sigma-1 receptor tagged with V5 and His tags (S1R-V5-His) (from UniProt Q99720 1-223)	binding [4]: binds; binding (M2R A401T-CFP (porcine)): binds; binding (M2R-CFP (porcine)): binds
